{"source": "paper PMC12700831", "key": {"[1]": {"biological_target": "T1, recombinant Tetrahymena thermophila Shulin (T. thermophila) (UniProt Q22YU3)", "T1 sequence": "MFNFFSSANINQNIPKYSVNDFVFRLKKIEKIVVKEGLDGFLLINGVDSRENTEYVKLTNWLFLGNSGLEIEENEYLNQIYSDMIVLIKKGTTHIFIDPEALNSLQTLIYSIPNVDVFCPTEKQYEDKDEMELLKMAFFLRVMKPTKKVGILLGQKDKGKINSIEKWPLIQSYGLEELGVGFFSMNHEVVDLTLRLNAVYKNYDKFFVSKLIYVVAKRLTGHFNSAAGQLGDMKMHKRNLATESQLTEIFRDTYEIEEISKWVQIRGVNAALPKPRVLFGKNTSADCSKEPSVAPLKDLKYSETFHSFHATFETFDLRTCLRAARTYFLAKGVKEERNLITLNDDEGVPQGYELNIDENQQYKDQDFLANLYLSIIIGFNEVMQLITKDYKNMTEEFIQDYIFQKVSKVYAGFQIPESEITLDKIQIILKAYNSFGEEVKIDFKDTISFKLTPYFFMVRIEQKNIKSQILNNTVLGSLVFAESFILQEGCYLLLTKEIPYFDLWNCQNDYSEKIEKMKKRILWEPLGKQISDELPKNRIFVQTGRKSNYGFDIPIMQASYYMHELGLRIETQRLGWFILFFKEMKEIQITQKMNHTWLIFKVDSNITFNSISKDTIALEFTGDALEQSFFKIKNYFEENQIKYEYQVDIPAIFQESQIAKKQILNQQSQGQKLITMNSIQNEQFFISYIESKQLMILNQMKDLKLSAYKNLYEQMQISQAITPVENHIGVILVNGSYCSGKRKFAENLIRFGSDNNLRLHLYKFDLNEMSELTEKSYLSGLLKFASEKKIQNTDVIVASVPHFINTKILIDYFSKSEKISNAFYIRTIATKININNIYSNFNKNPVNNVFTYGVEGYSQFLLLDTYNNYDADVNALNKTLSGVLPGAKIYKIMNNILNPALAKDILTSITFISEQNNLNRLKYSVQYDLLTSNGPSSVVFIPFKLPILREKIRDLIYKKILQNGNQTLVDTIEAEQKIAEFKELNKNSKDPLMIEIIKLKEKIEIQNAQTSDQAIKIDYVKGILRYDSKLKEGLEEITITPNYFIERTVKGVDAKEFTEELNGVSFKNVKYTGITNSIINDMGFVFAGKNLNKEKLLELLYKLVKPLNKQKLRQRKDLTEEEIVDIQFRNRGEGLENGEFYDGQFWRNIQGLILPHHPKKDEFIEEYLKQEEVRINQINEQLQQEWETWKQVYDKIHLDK", "assay": "negative-stain EM; freshly isolated complexes of Shulin or DNAAF9 with Arl3-Q70L, 2% uranyl acetate, 2D class averages; ~18 Å 3D map of DNAAF9–Arl3; both purified"}, "[2]": {"biological_target": "T1, recombinant Tetrahymena thermophila Shulin (T. thermophila)", "assay": "SEC; Shulin or DNAAF9 with fourfold molar excess of Arl3 or ARL3 variants, 30 min on ice, 1 mM GDP or 1 mM GTP, Superdex 200 increase 3.2/300; coelution by SDS–PAGE; both purified"}}, "note": "These are yes or no findings as the source states them, for the method shown. Binding can be weak; no strength is given.", "data": [{"substance": "Tetrahymena thermophila Arl3-Q70L (His tag, bacterial) (T. thermophila)", "values": [{"measurement": "binding", "setting": "[1]", "value": "binds"}, {"measurement": "binding", "setting": "[2]", "value": "binds"}]}]}
